PubChem BioAssay AID504793 | Drosophila RNAi Screening Center – 2011

- Aim: 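Whole-genome screen for parts of the DNA damage checkpoint at G2/M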 (primary screen)
- System: Drosophila S2R+ cells
- Reagent: long dsRNA against Drosophila genes, about 0.25 µg dsRNA per well
- Duration: 4 days of dsRNA, then 4 hours of drug before read-out
- Treatment: doxorubicin 0.5 µM for 4 hours to cause double-strand breaks, in cells also given a low, harmless dose of dsRNA against nbs to sensitise the assay
- Measurement: 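Per-well count of mitotic cells stained for phospho-histone H3 after doxorubicin exposure, used as mitotic index; counts are raw and not normalised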
- Scale: mitotic cells: higher = more cells in mitosis, weaker G2 arrest
- Hit rule: 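a call needs confirmation in secondary tests, with other dsRNAs and a check of mitotic timing without damage, not just a high primary count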
- Calls: active = confirmed in follow-up tests; inactive = not confirmed
The screen tested about 23,000 reagents; below is an unselected part of those with a known target gene and a result. In the full data, 62 (0.27%) were called active. 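Calls come from follow-up tests whose scores are not deposited, so confirmed genes may have low counts here; counts are not normalised per plate.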 Raw values vary from plate to plate and are shown uncorrected. A number with no mark means an inactive call. A plus sign joins genes that one reagent is predicted to hit. No sequences are given here.

| Target gene | PubChem SID | mitotic cells, replicate 1 | mitotic cells, replicate 2 |
| --- | --- | --- | --- |
| Psf2 (GeneID 33641) | SID104180308 | 6 | – |
| Vm26Aa (GeneID 33829) | SID104183264 | 2 | – |
| Vm26Aa (GeneID 33829) | SID104203789 | 3 | – |
| SrpRbeta (GeneID 47283) | SID104201353 | 6 | – |
| SrpRbeta (GeneID 47283) | SID104206397 | 8 | – |
| CG15040 (GeneID 32848) | SID104199408 | 18 | – |
| CG15040 (GeneID 32848) | SID104201213 | 8 | – |
| CG15040 (GeneID 32848) | SID104208010 | 4 | – |
| CG15646 (GeneID 32501) | SID104199474 | 7 | – |
| Snoo (GeneID 5740414) | SID104182796 | 5 | – |
| Snoo (GeneID 5740414) | SID104182827 | 3 | – |
| CR18228 (GeneID 8674096) | SID104195109 | 4 | – |
| upd2 (GeneID 32805) | SID104199761 | 19 | – |
| upd2 (GeneID 32805) | SID104203067 | 2 | – |
| CG13674 (GeneID 38921) | SID104189825 | 5 | – |
| CG13674 (GeneID 38921) | SID104206372 | 7 | – |
| mthl12 (GeneID 261599) | SID104192756 | 10 | – |
| CG6495 (GeneID 34486) | SID104181785 | 7 | – |
| CG6495 (GeneID 34486) | SID104207672 | 1 | – |
| Tsf1 (GeneID 32821) | SID104200088 | 12 | – |
| Tsf1 (GeneID 32821) | SID104206790 | 1 | – |
| CG13813 (GeneID 40218) | SID104189860 | 8 | – |
| CG34436 (GeneID 5740743) | SID104194956 | 10 | – |
| hpRNA:CR18854 (GeneID 10178800) | SID104182494 | 6 | – |
| hpRNA:CR18854 (GeneID 10178800) | SID104208353 | 10 | – |
| CG17261 (GeneID 33522) | SID104180290 | 7 | – |
| CG3199 (GeneID 41725) | SID104195259 | 4 | – |
| CG3199 (GeneID 41725) | SID104208604 | 1 | – |
| Tango11 (GeneID 246596) | SID104183682 | 9 | – |
| Tango11 (GeneID 246596) | SID104183684 | 3 | – |
| CG9752 (GeneID 37431) | SID104184354 | 6 | – |
| pall (GeneID 39104) | SID104190156 | 11 | – |
| mRpL20 (GeneID 39477) | SID104189620 | 4 | – |
| CG11089 + CG31381 | SID104193482 | 9 | – |
| CG11089 + CG31381 | SID104194082 | 6 | – |
| CG11089 + CG31381 | SID104208493 | 6 | – |
| Fkbp39 (GeneID 41860) | SID104196459 | 6 | – |
| Fkbp39 (GeneID 41860) | SID104202887 | 3 | – |
| CG10725 (GeneID 39510) | SID104189580 | 3 | – |
| tei (GeneID 36521) | SID104187408 | 10 | – |
| tei (GeneID 36521) | SID104202874 | 5 | – |
| CG2909 (GeneID 31958) | SID104198033 | 7 | – |
| Xrcc2 (GeneID 32837) | SID104199776 | 9 | – |
| Xrcc2 (GeneID 32837) | SID104208057 | 2 | – |
| Epg5 (GeneID 42256) | SID104194570 | 5 | – |
| CG6800 (GeneID 42562) | SID104195911 | 13 | – |
| CG31343 (GeneID 326133) | SID104195679 | 4 | – |
| Ant2 (GeneID 32008) | SID104199122 | 8 | – |
| Ant2 (GeneID 32008) | SID104204990 | 4 | – |
| Ir7c (GeneID 31692) | SID104197799 | 11 | – |
| CG7568 (GeneID 43482) | SID104196051 | 13 | – |
| CG7568 (GeneID 43482) | SID104206922 | 7 | – |
| Plod (GeneID 39265) | SID104190393 | 4 | – |
| Plod (GeneID 39265) | SID104190394 | 3 | – |
| Pfdn5 (GeneID 42647) | SID104195975 | 8 | – |
| Vago (GeneID 32040) | SID104199625 | 8 | – |
| Vago (GeneID 32040) | SID104204864 | 9 | – |
| PLCXD (GeneID 34623) | SID104182219 | 4 | 15 |
| superdeath (GeneID 43444) | SID104194660 | 12 | – |
| superdeath (GeneID 43444) | SID104203050 | 4 | – |
| sw + Sdic4 + Sdic3 + 2 more | SID104200488 | 35 | – |
| sw + Sdic4 + Sdic3 + 2 more | SID104207698 | 15 | – |
| RpL37-1 (GeneID 32446) | SID104199941 | 9 | – |
| RpL37-1 (GeneID 32446) | SID104201338 | 9 | – |
| CG13898 (GeneID 38092) | SID104188160 | 2 | – |
| CG8388 (GeneID 36763) | SID104186949 | 12 | – |
| CG3842 (GeneID 31576) | SID104198118 | 10 | – |
| CG3842 (GeneID 31576) | SID104205128 | 4 | – |
| rl (GeneID 3354888) | SID104187625 | 4 | – |
| rl (GeneID 3354888) | SID104200534 | 21 | – |
| rl (GeneID 3354888) | SID104201468 | 6 | – |
| TyrRS (GeneID 39829) | SID104190222 | 11 | – |
| TyrRS (GeneID 39829) | SID104205689 | 12 | – |
| GstE1 (GeneID 37106) | SID104187229 | 6 | – |
| GstE1 (GeneID 37106) | SID104203352 | 2 | – |
